Source: the supplement of paper PMC11451515

Assays:
Conditions in all cases: 48 h
P12-Ichikawa [1] = test: cell viability relative to DMSO control; higher = less cytotoxic
How it was run: (§1)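 In 1536-well plates, 5 μl of leukemia cells were seeded per well: 500 cells/well for NOMO1 or SEM and 1000 cells/well for P12-Ichikawa. Each line had first been adapted for at least four passages in each medium. Library compounds in DMSO were pin-dosed at 11 threefold concentrations between 47 μM and 0.79 nM, and CellTiter-Glo One luminescence was read after 48 h at 37°C. Viability is a per-plate percentage relative to DMSO wells, with cell-free wells as background.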

NOMO1 [2] = test: as above
How it was run: as §1

SEM cells = test: as above
How it was run: as §1

P12-Ichikawa [3] = test: AUC of viability dose-response curve (% viability x log10 dose units); higher = less sensitive
How it was run: (§2)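 Leukemia cells adapted to each medium (500 or 1000 cells/well, 1536-well plates) were exposed to library compounds in DMSO for 48 h at 37°C at 11 threefold doses, 47 μM to 0.79 nM. Luminescence by CellTiter-Glo One was normalised per plate to DMSO and cell-free wells, then fitted with a four-parameter log-logistic curve on log10 dose. Curves above full viability were scaled and quality-control failures removed before area under the curve was integrated by trapezoidal rule.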

NOMO1 [4] = test: as above
How it was run: as §2

Nc1ccc([S+](N)(=O)[O-])cc1
cell viability [%]
Conditions | NOMO1 [2] | P12-Ichikawa [1] | SEM cells
HPLM + 10% dialyzed FBS, 0.000781 µM | 102 | 105 | 95.7
HPLM + 10% dialyzed FBS, 0.00234 µM | 99.4 | 110 | 101
HPLM + 10% dialyzed FBS, 0.00702 µM | 124 | 110 | 97.2
HPLM + 10% dialyzed FBS, 0.0211 µM | 70.9 | 75.8 | 36.6
HPLM + 10% dialyzed FBS, 0.0632 µM | 119 | 107 | 102
HPLM + 10% dialyzed FBS, 0.19 µM | 126 | 107 | 116
HPLM + 10% dialyzed FBS, 0.569 µM | 115 | 110 | 88.8
HPLM + 10% dialyzed FBS, 1.71 µM | 100 | 105 | 40.7
HPLM + 10% dialyzed FBS, 5.12 µM | 92.6 | 105 | 102
HPLM + 10% dialyzed FBS, 15.4 µM | 95.5 | 106 | 104
HPLM + 10% dialyzed FBS, 46.1 µM | 84.6 | 77.4 | 98.3
RPMI 5 mM glucose + 10% FBS, 0.000781 µM | 95.1 | 116 | 110
RPMI 5 mM glucose + 10% FBS, 0.00234 µM | 103 | 102 | 111
RPMI 5 mM glucose + 10% FBS, 0.00702 µM | 99 | 110 | 91.1
RPMI 5 mM glucose + 10% FBS, 0.0211 µM | 88.1 | 70.6 | 13.2
RPMI 5 mM glucose + 10% FBS, 0.0632 µM | 96 | 101 | 113
RPMI 5 mM glucose + 10% FBS, 0.19 µM | 101 | 99.9 | 105
RPMI 5 mM glucose + 10% FBS, 0.569 µM | 103 | 104 | 104
RPMI 5 mM glucose + 10% FBS, 1.71 µM | 93.2 | 107 | 17
RPMI 5 mM glucose + 10% FBS, 5.12 µM | 91.3 | 98 | 96
RPMI 5 mM glucose + 10% FBS, 15.4 µM | 95.1 | 99.3 | 96.5
RPMI 5 mM glucose + 10% FBS, 46.1 µM | 89.8 | 77.1 | 78.6
RPMI 5 mM glucose + 10% dialyzed FBS, 0.000781 µM | 103 | 108 | 105
RPMI 5 mM glucose + 10% dialyzed FBS, 0.00234 µM | 100 | 109 | 102
RPMI 5 mM glucose + 10% dialyzed FBS, 0.00702 µM | 102 | 104 | 93.4
RPMI 5 mM glucose + 10% dialyzed FBS, 0.0211 µM | 72.2 | 71.6 | 25
RPMI 5 mM glucose + 10% dialyzed FBS, 0.0632 µM | 99.9 | 110 | 104
RPMI 5 mM glucose + 10% dialyzed FBS, 0.19 µM | 107 | 102 | 98
RPMI 5 mM glucose + 10% dialyzed FBS, 0.569 µM | 109 | 103 | 91.5
RPMI 5 mM glucose + 10% dialyzed FBS, 1.71 µM | 107 | 92 | 49.7
RPMI 5 mM glucose + 10% dialyzed FBS, 5.12 µM | 93.7 | 88.9 | 101
RPMI 5 mM glucose + 10% dialyzed FBS, 15.4 µM | 93.2 | 90.1 | 110
RPMI 5 mM glucose + 10% dialyzed FBS, 46.1 µM | 92.1 | 78.8 | 82.5

AUC of viability dose-response curve
Conditions | HPLM + 10% dialyzed FBS | RPMI 5 mM glucose + 10% FBS | RPMI 5 mM glucose + 10% dialyzed FBS
NOMO1 [4] | 461 | 458 | 468
P12-Ichikawa [3] | 471 | 443 | 453

N[S+](=O)([O-])c1cc(C(=O)O)c(NCc2ccco2)cc1Cl
cell viability [%]
Conditions | NOMO1 [2] | P12-Ichikawa [1] | SEM cells
HPLM + 10% dialyzed FBS, 0.000781 µM | 101 | 94.6 | 39.2
HPLM + 10% dialyzed FBS, 0.00234 µM | 107 | 85.4 | 80.3
HPLM + 10% dialyzed FBS, 0.00702 µM | 108 | 78.8 | 98.2
HPLM + 10% dialyzed FBS, 0.0211 µM | 97.3 | 97.5 | 93.6
HPLM + 10% dialyzed FBS, 0.0632 µM | 86.3 | 97 | 79.8
HPLM + 10% dialyzed FBS, 0.19 µM | 90.8 | 92.3 | 82.7
HPLM + 10% dialyzed FBS, 0.569 µM | 95.3 | 76 | 84.2
HPLM + 10% dialyzed FBS, 1.71 µM | 71.7 | 71.1 | 73.9
HPLM + 10% dialyzed FBS, 5.12 µM | 80.7 | 82.7 | 96.5
HPLM + 10% dialyzed FBS, 15.4 µM | 74.4 | 73.9 | 23.4
HPLM + 10% dialyzed FBS, 46.1 µM | 63 | 82.2 | 85.5
RPMI 5 mM glucose + 10% FBS, 0.000781 µM | 74 | 86.9 | 50.9
RPMI 5 mM glucose + 10% FBS, 0.00234 µM | 73.2 | 90.3 | 101
RPMI 5 mM glucose + 10% FBS, 0.00702 µM | 77.8 | 91.9 | 111
RPMI 5 mM glucose + 10% FBS, 0.0211 µM | 77.6 | 83.5 | 115
RPMI 5 mM glucose + 10% FBS, 0.0632 µM | 88.8 | 89.7 | 68.9
RPMI 5 mM glucose + 10% FBS, 0.19 µM | 75.2 | 94.2 | 91.5
RPMI 5 mM glucose + 10% FBS, 0.569 µM | 78.4 | 86.2 | 82.5
RPMI 5 mM glucose + 10% FBS, 1.71 µM | 77.8 | 81.2 | 74.9
RPMI 5 mM glucose + 10% FBS, 5.12 µM | 82.1 | 88.5 | 114
RPMI 5 mM glucose + 10% FBS, 15.4 µM | 79.1 | 70.5 | 17.7
RPMI 5 mM glucose + 10% FBS, 46.1 µM | 84 | 79.6 | 86.7
RPMI 5 mM glucose + 10% dialyzed FBS, 0.000781 µM | 95.3 | 78 | 40.9
RPMI 5 mM glucose + 10% dialyzed FBS, 0.00234 µM | 85.2 | 77.5 | 91.2
RPMI 5 mM glucose + 10% dialyzed FBS, 0.00702 µM | 86.1 | 79.6 | 112
RPMI 5 mM glucose + 10% dialyzed FBS, 0.0211 µM | 86.2 | 84.5 | 96.3
RPMI 5 mM glucose + 10% dialyzed FBS, 0.0632 µM | 93.1 | 82.3 | 71.4
RPMI 5 mM glucose + 10% dialyzed FBS, 0.19 µM | 96 | 81.7 | 99.1
RPMI 5 mM glucose + 10% dialyzed FBS, 0.569 µM | 82.6 | 85.8 | 90.5
RPMI 5 mM glucose + 10% dialyzed FBS, 1.71 µM | 82.5 | 77.5 | 77.5
RPMI 5 mM glucose + 10% dialyzed FBS, 5.12 µM | 81.9 | 80.2 | 111
RPMI 5 mM glucose + 10% dialyzed FBS, 15.4 µM | 82.1 | 71.2 | 14
RPMI 5 mM glucose + 10% dialyzed FBS, 46.1 µM | 78.7 | 80.4 | 92.3

P12-Ichikawa [3]
Conditions | AUC of viability dose-response curve
HPLM + 10% dialyzed FBS | 404
RPMI 5 mM glucose + 10% FBS | 410
RPMI 5 mM glucose + 10% dialyzed FBS | 382
